Assay results: patent US20140287995A1, “STABLE PHARMACEUTICAL FORMULATIONS OF GROWTH FACTOR PEPTIDES” (THE UNIVERSITY OF CHICAGO, priority 2011, published 2014)

Experiment: Stability of neutral lyophilized NX001 formulation, 12 months storage
Format: physicochemical
Protocol: The stability of NX001 formulations was also evaluated. The stability of a lot of NX001 was monitored for 12 months at storage temperatures of 5° C. and 25° C. Appearance of lyophilized cake, reconstitution time, appearance of the reconstituted solution, pH, identity of the peptide, potency and purity of the peptide, and residual moisture were evaluated.
The evaluated parameters of neutral formulations of NX001 were not changed following 12 months storage at temperatures of 5° C. and 25° C.

Measured: Identity (reverse-phase HPLC peak of sample compared to standard)

AQPYPQGNHEASYG [NX001, growth factor peptide designated NX001; PPL-WGF codes are lots of it]
Positive: 5° C., After 12 months of storage | 5° C., Initial | 25° C., After 12 months of storage | 25° C., Initial
